Assay results taken from PubChem BioAssay AID493014 (National Center for Advancing Translational Sciences (NCATS), 2011).
About 170 (0.05%) of roughly 340,000 compounds were called active. The call rests on the fitted dose curve; in most records, active means well fitted inhibition curve with a large enough effect in the signal ratio, with a control signal flat (not every such curve was filed as active); inconclusive means small, poorly fitted or top-dose-only effect, or effect the other way, or a change in a side signal; inactive means flat fitted curve, though single readings scatter; the % refers to the signal ratio. Inconclusive means that the source gave no clear call. Potencies beside an inconclusive call are fits to weak or partial responses and may not hold up.

experiment: qHTS Assay to Find Inhibitors of Chronic Active B-Cell Receptor Signaling; conditions: ABC-DLBCL IkBa-CBG/CBR reporter, luminescence ratio (green luciferase fused to IkBa over red control in TMD8 lymphoma cells), 4 h; activity change, negative = inhibition: at 46.1 µM (top of the series);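 on activity change, negative = inhibition: plate controls were basal doxycycline-induced cells for no effect and cells given 10 µM MG132 for full effect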
In short: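 TMD8 human ABC-DLBCL cells with doxycycline-inducible IκBα–green luciferase fusion and unfused red luciferase, in 0.5% FBS medium; compounds up to 46 uM, 4 h at 37C. Green/red luminescence ratio, filter-overlap corrected, fitted to concentration-response curves.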
Potency means the concentration at half of the fitted maximal effect.

| SMILES | Potency | activity change, negative = inhibition |
| --- | --- | --- |
| CS(=O)(=O)C1=NSC2=NC(=O)/C(=C\c3ccc(OC(=O)c4ccco4)c(Br)c3)C(=N)N21 | inconclusive: 2240 nM [falling, partial curve, poor fit] | – |
| CCc1nnc(NS(=O)(=O)c2ccc(N/C=C(\C=O)c3nc4cc(Cl)ccc4o3)cc2)s1 | – | inconclusive: 4.88% |
